In the supplement of paper PMC10849652:
The list shows a part of the results.

Amino acid sequences for entries named in this document (tags omitted). A change or cut given only in a name is not applied to a line headed by its entry.
UniProt O00264: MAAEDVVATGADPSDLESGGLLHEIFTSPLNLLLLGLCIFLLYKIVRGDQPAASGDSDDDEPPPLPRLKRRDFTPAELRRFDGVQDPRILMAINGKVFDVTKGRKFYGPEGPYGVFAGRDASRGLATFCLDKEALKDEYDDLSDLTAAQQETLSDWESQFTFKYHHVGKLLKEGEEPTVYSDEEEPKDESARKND
UniProt Q9NRX4: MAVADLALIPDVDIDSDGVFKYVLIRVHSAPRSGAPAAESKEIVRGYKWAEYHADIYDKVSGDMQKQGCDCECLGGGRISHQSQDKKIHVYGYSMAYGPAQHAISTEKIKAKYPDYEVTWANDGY
UniProt Q53GA4: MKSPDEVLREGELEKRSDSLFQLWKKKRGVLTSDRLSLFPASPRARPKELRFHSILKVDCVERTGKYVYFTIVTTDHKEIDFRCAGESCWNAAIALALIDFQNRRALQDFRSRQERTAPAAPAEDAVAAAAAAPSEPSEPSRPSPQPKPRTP
UniProt Q9HAU0: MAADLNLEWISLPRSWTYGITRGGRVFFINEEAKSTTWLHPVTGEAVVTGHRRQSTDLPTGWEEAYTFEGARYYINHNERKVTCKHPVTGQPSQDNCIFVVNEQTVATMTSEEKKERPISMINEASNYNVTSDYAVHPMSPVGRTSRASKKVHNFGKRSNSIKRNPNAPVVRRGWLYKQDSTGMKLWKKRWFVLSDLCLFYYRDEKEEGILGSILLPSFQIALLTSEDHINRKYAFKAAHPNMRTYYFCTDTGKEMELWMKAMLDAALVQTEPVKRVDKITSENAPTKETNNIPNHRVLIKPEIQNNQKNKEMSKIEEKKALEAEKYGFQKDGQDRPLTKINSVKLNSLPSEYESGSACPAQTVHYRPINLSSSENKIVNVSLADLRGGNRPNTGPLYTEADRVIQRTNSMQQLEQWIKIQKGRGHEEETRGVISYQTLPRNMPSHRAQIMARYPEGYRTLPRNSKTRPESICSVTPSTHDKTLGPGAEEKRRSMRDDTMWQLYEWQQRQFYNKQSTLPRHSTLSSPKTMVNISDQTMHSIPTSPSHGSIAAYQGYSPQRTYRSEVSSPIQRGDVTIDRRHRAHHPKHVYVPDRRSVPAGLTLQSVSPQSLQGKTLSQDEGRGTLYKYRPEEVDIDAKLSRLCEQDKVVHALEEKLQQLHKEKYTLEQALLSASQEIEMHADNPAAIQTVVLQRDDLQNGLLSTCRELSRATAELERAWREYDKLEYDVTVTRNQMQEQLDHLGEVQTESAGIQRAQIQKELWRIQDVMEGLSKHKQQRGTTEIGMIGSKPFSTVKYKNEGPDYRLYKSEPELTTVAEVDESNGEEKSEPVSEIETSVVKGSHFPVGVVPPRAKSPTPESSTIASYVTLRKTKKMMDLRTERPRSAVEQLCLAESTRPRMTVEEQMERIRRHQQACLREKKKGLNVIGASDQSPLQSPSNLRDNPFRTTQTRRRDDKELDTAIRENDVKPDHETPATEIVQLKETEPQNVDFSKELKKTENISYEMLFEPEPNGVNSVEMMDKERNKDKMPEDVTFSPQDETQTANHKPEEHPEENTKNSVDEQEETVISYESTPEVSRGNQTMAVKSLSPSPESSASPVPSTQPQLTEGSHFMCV
UniProt Q9NXJ5: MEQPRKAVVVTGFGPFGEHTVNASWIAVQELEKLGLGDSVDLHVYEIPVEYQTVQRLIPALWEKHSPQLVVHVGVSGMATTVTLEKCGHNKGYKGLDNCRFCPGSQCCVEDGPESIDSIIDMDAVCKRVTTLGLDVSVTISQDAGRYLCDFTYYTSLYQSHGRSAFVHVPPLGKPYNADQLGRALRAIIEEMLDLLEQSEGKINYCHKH
UniProt Q8N2W9: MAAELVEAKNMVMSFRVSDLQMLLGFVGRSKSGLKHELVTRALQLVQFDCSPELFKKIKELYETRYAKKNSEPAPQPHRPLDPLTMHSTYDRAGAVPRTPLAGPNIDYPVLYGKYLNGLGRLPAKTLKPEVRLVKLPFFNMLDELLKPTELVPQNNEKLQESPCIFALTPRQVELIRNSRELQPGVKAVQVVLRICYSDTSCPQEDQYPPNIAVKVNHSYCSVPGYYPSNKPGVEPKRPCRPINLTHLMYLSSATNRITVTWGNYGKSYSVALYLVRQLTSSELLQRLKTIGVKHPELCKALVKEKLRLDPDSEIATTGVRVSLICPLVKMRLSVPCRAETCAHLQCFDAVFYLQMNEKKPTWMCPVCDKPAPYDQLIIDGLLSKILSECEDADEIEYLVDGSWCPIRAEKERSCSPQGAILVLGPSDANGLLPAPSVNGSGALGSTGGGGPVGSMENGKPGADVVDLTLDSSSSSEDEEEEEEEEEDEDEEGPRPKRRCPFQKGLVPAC
UniProt Q8IWS0: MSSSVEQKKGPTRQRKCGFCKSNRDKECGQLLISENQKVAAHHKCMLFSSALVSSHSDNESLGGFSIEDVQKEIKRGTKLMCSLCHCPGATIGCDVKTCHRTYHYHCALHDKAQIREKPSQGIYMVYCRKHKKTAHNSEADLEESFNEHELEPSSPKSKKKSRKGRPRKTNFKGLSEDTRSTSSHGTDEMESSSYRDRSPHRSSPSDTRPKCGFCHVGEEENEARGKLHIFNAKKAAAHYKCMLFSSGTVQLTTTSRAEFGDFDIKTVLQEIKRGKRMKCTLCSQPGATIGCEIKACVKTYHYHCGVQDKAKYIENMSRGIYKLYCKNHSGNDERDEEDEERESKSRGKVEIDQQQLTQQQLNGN
UniProt Q96BK5: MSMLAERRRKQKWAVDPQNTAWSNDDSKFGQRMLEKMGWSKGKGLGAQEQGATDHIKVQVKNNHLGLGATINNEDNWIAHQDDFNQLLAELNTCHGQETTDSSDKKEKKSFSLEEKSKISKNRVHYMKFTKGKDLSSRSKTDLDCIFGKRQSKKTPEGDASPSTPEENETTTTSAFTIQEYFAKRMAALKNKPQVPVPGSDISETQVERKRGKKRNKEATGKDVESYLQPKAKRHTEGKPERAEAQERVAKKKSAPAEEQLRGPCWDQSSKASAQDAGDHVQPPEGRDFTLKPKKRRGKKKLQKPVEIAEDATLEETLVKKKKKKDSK
UniProt Q9Y2I7: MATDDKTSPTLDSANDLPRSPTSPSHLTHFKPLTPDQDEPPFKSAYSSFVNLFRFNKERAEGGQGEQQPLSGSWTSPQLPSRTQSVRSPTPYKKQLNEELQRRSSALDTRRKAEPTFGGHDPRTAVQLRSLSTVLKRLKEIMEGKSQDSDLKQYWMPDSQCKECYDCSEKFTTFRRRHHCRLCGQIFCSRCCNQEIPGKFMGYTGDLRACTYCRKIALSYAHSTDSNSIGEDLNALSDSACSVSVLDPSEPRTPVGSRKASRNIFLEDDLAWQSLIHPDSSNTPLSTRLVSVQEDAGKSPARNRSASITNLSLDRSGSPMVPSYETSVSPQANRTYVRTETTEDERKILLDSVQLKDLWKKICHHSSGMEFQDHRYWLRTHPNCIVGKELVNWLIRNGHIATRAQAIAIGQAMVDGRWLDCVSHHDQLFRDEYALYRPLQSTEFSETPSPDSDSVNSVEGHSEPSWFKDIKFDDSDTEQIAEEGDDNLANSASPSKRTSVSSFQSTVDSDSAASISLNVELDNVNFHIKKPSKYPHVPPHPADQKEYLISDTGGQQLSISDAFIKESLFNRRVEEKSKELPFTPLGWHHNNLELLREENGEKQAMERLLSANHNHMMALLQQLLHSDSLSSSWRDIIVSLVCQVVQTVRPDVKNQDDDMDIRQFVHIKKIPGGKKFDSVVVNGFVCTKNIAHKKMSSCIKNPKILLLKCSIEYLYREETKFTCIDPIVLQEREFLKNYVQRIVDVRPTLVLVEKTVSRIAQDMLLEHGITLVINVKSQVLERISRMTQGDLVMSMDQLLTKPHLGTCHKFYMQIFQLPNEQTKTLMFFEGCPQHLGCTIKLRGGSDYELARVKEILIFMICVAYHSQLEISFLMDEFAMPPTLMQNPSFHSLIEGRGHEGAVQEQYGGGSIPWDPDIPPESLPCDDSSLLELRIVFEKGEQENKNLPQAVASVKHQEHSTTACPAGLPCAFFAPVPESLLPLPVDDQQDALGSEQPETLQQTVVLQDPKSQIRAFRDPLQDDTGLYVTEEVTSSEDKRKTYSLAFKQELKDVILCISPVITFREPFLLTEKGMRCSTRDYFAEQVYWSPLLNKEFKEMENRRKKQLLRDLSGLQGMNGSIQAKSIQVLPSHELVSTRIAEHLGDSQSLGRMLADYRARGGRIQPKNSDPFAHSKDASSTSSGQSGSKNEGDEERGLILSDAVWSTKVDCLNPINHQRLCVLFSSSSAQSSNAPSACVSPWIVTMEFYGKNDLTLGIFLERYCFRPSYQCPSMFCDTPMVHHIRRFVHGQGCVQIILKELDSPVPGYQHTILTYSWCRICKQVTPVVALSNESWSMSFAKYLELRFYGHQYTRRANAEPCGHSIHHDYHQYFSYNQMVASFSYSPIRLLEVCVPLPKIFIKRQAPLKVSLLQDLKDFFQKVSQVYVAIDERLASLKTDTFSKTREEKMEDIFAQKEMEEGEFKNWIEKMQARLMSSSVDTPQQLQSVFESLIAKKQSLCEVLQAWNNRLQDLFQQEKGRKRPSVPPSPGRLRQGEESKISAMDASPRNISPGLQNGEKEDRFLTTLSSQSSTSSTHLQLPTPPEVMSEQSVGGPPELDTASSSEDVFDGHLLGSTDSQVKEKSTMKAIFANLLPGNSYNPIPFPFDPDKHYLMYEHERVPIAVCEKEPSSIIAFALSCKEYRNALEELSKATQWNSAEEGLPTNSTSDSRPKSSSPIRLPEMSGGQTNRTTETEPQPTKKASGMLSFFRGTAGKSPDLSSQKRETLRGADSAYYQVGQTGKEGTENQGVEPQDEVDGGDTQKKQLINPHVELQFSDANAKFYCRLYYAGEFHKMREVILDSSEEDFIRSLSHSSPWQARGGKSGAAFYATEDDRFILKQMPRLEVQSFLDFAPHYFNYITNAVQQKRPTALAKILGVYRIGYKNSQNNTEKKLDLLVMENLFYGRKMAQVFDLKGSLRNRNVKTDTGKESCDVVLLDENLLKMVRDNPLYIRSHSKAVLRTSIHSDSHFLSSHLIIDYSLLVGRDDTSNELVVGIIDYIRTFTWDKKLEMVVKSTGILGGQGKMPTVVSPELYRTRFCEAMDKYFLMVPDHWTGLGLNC
UniProt Q9NRD5, whole entry, looked up: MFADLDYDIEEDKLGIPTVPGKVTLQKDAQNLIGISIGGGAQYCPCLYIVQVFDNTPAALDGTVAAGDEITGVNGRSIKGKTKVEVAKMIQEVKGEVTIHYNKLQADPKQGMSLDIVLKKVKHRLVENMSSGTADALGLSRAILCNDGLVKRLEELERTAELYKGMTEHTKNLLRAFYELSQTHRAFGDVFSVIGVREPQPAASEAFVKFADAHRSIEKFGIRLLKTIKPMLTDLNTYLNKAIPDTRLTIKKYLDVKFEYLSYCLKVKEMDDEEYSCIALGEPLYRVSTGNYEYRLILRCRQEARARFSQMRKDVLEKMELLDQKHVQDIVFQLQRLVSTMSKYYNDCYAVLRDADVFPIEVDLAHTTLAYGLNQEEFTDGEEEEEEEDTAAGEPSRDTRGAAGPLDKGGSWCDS
UniProt P0C869: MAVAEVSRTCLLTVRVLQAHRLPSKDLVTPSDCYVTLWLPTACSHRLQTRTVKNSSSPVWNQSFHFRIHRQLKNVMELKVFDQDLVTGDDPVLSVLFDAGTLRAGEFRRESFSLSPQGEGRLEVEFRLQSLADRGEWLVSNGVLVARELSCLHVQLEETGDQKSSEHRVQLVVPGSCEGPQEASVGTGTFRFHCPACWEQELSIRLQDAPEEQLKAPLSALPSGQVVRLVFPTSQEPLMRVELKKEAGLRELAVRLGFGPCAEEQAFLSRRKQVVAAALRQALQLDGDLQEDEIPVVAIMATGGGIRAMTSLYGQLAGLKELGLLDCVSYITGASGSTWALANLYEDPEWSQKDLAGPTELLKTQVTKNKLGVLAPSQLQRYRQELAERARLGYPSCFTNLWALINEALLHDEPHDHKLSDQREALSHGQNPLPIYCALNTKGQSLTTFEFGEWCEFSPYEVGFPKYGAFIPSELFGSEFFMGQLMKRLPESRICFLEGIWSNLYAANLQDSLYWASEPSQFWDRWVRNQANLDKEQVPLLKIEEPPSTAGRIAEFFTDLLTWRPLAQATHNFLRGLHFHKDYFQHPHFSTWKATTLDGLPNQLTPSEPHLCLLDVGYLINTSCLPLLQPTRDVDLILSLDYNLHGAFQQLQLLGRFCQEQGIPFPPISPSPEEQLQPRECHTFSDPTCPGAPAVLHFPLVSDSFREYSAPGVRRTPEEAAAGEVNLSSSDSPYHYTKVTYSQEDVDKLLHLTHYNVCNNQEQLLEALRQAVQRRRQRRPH
UniProt O00625: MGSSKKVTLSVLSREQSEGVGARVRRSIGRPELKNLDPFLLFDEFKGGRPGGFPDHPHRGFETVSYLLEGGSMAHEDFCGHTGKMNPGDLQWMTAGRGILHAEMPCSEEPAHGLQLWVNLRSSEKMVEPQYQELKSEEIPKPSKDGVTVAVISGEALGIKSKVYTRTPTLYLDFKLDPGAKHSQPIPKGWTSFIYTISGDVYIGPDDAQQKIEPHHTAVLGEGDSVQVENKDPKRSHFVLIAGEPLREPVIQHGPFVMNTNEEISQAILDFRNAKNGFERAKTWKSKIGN

How the values were obtained:
Assay in all cases: log2 fold change, soluble protein after heating vs DMSO (PISA); higher = thermal stabilisation; K562 lysate, 10 uM; active = over 0.2 and 3.5 SD of the protein, either way, in both replicates (recomputed)
[1] = compound: NCC(=O)Nc1ccc(-n2nc(C(F)(F)F)cc2-c2ccc3c(ccc4ccccc43)c2)cc1
Outline: (§1)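 Dounce homogenisation of K562 pellets in PBS pH 7.4 with 1 mM MgCl2 produced a crude extract, used at 1 mg/mL protein. Exposure to 10 μM compound lasted 30 min, and aliquots were then heated for 3 min across 48°C-58°C, pooled and brought to 0.5% NP-40 at 4°C. The supernatant after 21,000xg for 90 min was quantified by TMTpro 16plex LC-MS/MS with channel sums equalised. Duplicate values are given as log-two fold change in thermal stability relative to solvent controls.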

[2] = compound: O=C(CCCCCCC(=O)Nc1ccccc1)NO [vorinostat]
Outline: as §1

[3] = compound: O=C(O)c1ccc2c(c1)nc(Nc1cccc(Cl)c1)c1ccncc12 [silmitasertib]
Outline: as §1

[4] = compound: O=C1NC(=O)C(c2cnc3ccccn23)=C1c1cn2c3c(cc(F)cc13)CN(C(=O)N1CCCCC1)CC2
Outline: as §1

[5] = compound: c1cn2cc(-c3ccc4cn[nH]c4c3)nc(Nc3ccc(N4CCOCC4)cc3)c2n1 [entospletinib]
Outline: as §1

| Target | log2 fold change [1] | log2 fold change [2] | log2 fold change [3] | log2 fold change [4] | log2 fold change [5] |
| --- | --- | --- | --- | --- | --- |
| PIGM (UniProt Q9H3S5) | inactive: -0.024 | inactive: 0.039 | inactive: 0.009 | inactive: 0.025 | inactive: 0.044 |
| PKM (UniProt P14618) | inactive: 0.019 | inactive: -0.053 | inactive: -0.02 | inactive: 0.025 | inactive: 0.008 |
| PGK1 (UniProt P00558) | inactive: 0.014 | inactive: 0.013 | inactive: -0.008 | inactive: 0.001 | inactive: 0.003 |
| PIP4K2B (UniProt P78356) | inactive: 0.005 | inactive: 0.074 | inactive: 0.221 | inactive: 0.073 | inactive: -0.013 |
| PIK3CD (UniProt O00329) | inactive: -0.059 | active: -0.516 | inactive: 0.223 | inactive: -0.004 | – |
| PHGDH (UniProt O43175) | inactive: 0.023 | active: -0.939 | inactive: 0.031 | inactive: 0.028 | inactive: 0.016 |
| PGRMC1 (UniProt O00264) | inactive: -0.018 | inactive: 0.113 | inactive: 0.017 | inactive: 0.014 | inactive: -0.02 |
| PHF21A isoform 3 (UniProt Q96BD5) | inactive: 0.002 | inactive: -0.202 | inactive: -0.037 | inactive: -0.071 | inactive: 0.023 |
| PKLR (UniProt F8W6W2) | inactive: 0.098 | – | – | – | – |
| PIGU (UniProt Q9H490) | inactive: -0.072 | inactive: 0.109 | inactive: 0.04 | inactive: 0.035 | – |
| PIGH (UniProt Q14442) | inactive: -0.065 | inactive: 0.169 | inactive: -0.007 | inactive: -0.132 | – |
| PHPT1 (UniProt Q9NRX4) | inactive: -0.014 | inactive: 0.073 | inactive: 0.02 | inactive: -0.028 | inactive: 0 |
| PHLDA2 (UniProt Q53GA4) | inactive: 0.027 | inactive: -0.199 | inactive: 0.036 | inactive: -0.166 | – |
| PLCH1 (UniProt Q4KWH8) | inactive: -0.05 | inactive: 0.043 | inactive: 0.026 | inactive: -0.065 | inactive: 0.055 |
| PKN1 isoform 2 (UniProt Q16512) | inactive: 0.002 | inactive: -0.131 | inactive: -0.012 | inactive: -0.138 | inactive: -0.009 |
| PIBF1 (UniProt Q8WXW3) | inactive: 0.035 | inactive: -0.048 | inactive: 0.019 | inactive: -0.024 | inactive: -0.012 |
| PKN3 (UniProt Q6P5Z2) | inactive: -0.119 | inactive: -0.047 | inactive: -0.028 | inactive: -0.117 | inactive: 0.148 |
| PLEKHA5 isoform 6 (UniProt Q9HAU0) | inactive: -0.029 | active: -0.305 | inactive: -0.003 | inactive: -0.016 | inactive: 0.022 |
| PHLPP1 (UniProt O60346) | inactive: -0.099 | inactive: -0.082 | inactive: -0.067 | inactive: -0.073 | – |
| PKP3 isoform 2 (UniProt Q9Y446) | inactive: -0.021 | active: -0.286 | inactive: -0.043 | inactive: -0.063 | inactive: 0.002 |
| PIP4K2C (UniProt Q8TBX8) | inactive: 0.021 | inactive: -0.07 | active: 0.425 | inactive: 0.063 | inactive: 0.004 |
| PLA2G12A (UniProt Q9BZM1) | inactive: -0.028 | inactive: 0.093 | inactive: 0.03 | inactive: 0.032 | – |
| PGPEP1 (UniProt Q9NXJ5) | inactive: 0 | active: -0.526 | inactive: 0.009 | inactive: 0.012 | inactive: -0.049 |
| PIK3C3 (UniProt Q8NEB9) | inactive: -0.04 | inactive: -0.066 | inactive: 0.037 | inactive: 0.019 | inactive: -0.014 |
| PI4KA (UniProt P42356) | inactive: -0.011 | active: -0.426 | inactive: 0.077 | inactive: 0.004 | inactive: 0.031 |
| PIP4P2 (UniProt Q8N4L2) | inactive: 0.004 | inactive: 0.029 | inactive: 0.034 | inactive: 0.034 | inactive: -0.05 |
| PIAS4 (UniProt Q8N2W9) | inactive: 0.043 | inactive: -0.062 | inactive: 0.042 | inactive: -0.062 | inactive: -0.031 |
| PITRM1 isoform 2 (UniProt Q5JRX3) | inactive: 0.003 | inactive: 0.111 | inactive: 0.006 | inactive: -0.011 | inactive: 0.002 |

| Target | log2 fold change [1] | log2 fold change [2] | log2 fold change [3] | log2 fold change [4] | log2 fold change [5] |
| --- | --- | --- | --- | --- | --- |
| PIEZO1 (UniProt Q92508) | inactive: 0.023 | inactive: 0.09 | inactive: 0.016 | inactive: 0.001 | inactive: -0.015 |
| PHF6 (UniProt Q8IWS0) | inactive: -0.021 | inactive: 0.013 | inactive: -0.004 | inactive: 0.166 | inactive: 0.031 |
| PGGT1B (UniProt P53609) | inactive: -0.038 | inactive: 0.08 | inactive: 0.109 | inactive: -0.029 | inactive: -0.054 |
| PINX1 (UniProt Q96BK5) | inactive: 0.212 | inactive: 0.013 | inactive: -0.035 | inactive: -0.089 | inactive: -0.126 |
| PLEKHF1 (UniProt Q96S99) | inactive: -0.019 | active: -0.272 | inactive: 0.07 | inactive: -0.014 | inactive: 0.014 |
| PLAA (UniProt Q9Y263) | inactive: 0.008 | inactive: -0.021 | inactive: -0.025 | inactive: 0.016 | inactive: 0.001 |
| PHLDB1 (UniProt Q86UU1) | inactive: 0.022 | active: -0.357 | inactive: 0.012 | inactive: 0.128 | inactive: 0.008 |
| PIKFYVE (UniProt Q9Y2I7) | inactive: 0.031 | active: -0.476 | inactive: 0.03 | inactive: -0.026 | inactive: -0.014 |
| PLEC (UniProt Q15149) | inactive: 0.018 | inactive: -0.113 | inactive: 0.019 | inactive: -0.02 | inactive: 0 |
| PHAX (UniProt Q9H814) | inactive: -0.005 | inactive: 0.085 | inactive: -0.008 | inactive: -0.053 | inactive: 0.014 |
| PICK1 (UniProt Q9NRD5) | inactive: -0.062 | inactive: -0.09 | inactive: -0.079 | inactive: 0.008 | inactive: -0.013 |
| PIK3CB (UniProt P42338) | inactive: -0.041 | inactive: -0.395 | inactive: 0.321 | inactive: -0.046 | inactive: 0.038 |
| PLA2G4B isoform 6 (UniProt P0C869) | inactive: -0.008 | inactive: 0.002 | inactive: -0.017 | inactive: 0.264 | inactive: 0.06 |
| PKM (UniProt H3BTN5) | inactive: 0.003 | inactive: 0.252 | inactive: 0.108 | inactive: 0.081 | inactive: 0.007 |
| PKLR (UniProt P30613) | inactive: 0.025 | inactive: 0.036 | inactive: -0.037 | inactive: 0.026 | inactive: 0 |
| PIGT (UniProt Q969N2) | inactive: -0.013 | inactive: 0.135 | inactive: 0.044 | inactive: -0.044 | inactive: 0.008 |
| PLCG1 isoform 2 (UniProt P19174) | inactive: -0.016 | inactive: -0.246 | inactive: 0.085 | inactive: 0.006 | inactive: -0.019 |
| PIK3R2 (UniProt O00459) | inactive: -0.007 | inactive: -0.245 | inactive: 0.201 | inactive: -0.029 | inactive: -0.092 |
| PLEKHF2 (UniProt Q9H8W4) | inactive: -0.033 | inactive: -0.107 | inactive: -0.028 | inactive: -0.016 | inactive: 0 |
| PGM2L1 (UniProt Q6PCE3) | inactive: 0.056 | inactive: 0.097 | inactive: 0 | inactive: -0.035 | inactive: 0 |
| PHF23 (UniProt Q9BUL5) | inactive: 0.023 | inactive: 0.059 | inactive: 0 | inactive: -0.029 | inactive: 0 |
| PIR (UniProt O00625) | inactive: 0.015 | inactive: 0.035 | inactive: -0.049 | inactive: -0.013 | inactive: -0.035 |
| PIGK (UniProt Q92643) | inactive: 0.003 | inactive: 0.134 | inactive: 0.03 | inactive: -0.002 | inactive: -0.011 |
| PIK3CA (UniProt P42336) | inactive: -0.024 | inactive: -0.061 | inactive: 0.074 | inactive: -0.004 | inactive: -0.046 |
| PHC3 isoform 7 (UniProt Q8NDX5) | inactive: -0.007 | inactive: -0.216 | inactive: 0.061 | inactive: -0.031 | inactive: 0.213 |
| PIK3CG (UniProt P48736) | inactive: -0.111 | inactive: -0.037 | inactive: 0.04 | inactive: -0.027 | inactive: -0.073 |
| PIP4P1 isoform 2 (UniProt Q86T03) | inactive: 0.023 | inactive: -0.17 | inactive: 0.02 | inactive: 0.017 | inactive: -0.034 |

Looked up above:
log2 fold change [4], PKM (UniProt H3BTN5) is entered as inactive: 0.081
log2 fold change [3], PIKFYVE (UniProt Q9Y2I7) is entered as inactive: 0.03

Two entries picked at random from those above:

| Target | log2 fold change [1] | log2 fold change [2] | log2 fold change [3] | log2 fold change [4] | log2 fold change [5] |
| --- | --- | --- | --- | --- | --- |
| PIBF1 (UniProt Q8WXW3) | inactive: 0.035 | inactive: -0.048 | inactive: 0.019 | inactive: -0.024 | inactive: -0.012 |
| PIKFYVE (UniProt Q9Y2I7) | inactive: 0.031 | active: -0.476 | inactive: 0.03 | inactive: -0.026 | inactive: -0.014 |
